Assay results published in US20150216794A1, “METHODS OF TREATING PAIN ASSOCIATED WITH OSTEOARTHRITIS OF A JOINT WITH A TOPICAL FORMULATION OF A SPIRO-OXINDOLE COMPOUND” (IVAX International GmbH, priority 2014, published 2015).
Values joined by “and” are separate entries in the source; they are usually repeats but may differ in a detail not shown here. Equal entries are not always repeated. Further values from the same series stand in other lists.

Test: domestic pig joint penetration study: concentration in plasma
Type: in vivo
Method: This study was conducted to evaluate the joint penetration, systemic plasma exposure and tissue distribution of the spiro-oxindole compound in domestic pigs following topical administration of a pharmaceutical composition utilized in the methods of the invention. Fifteen female pigs were used in this study with three pigs in each group. Beginning on Day 1, a pharmaceutical composition of the invention was topically applied to the left radiocarpal joint (carpus) and tibiotarsal joint (hock) twice daily (bid) for 17 days (34 applications) for Groups 1-4 and once daily (qd) for 17 days (17 applications) for Group 5. Pre-dose blood samples (prior to morning dosing) was collected on Days 2, 7, 10, 14 and 17. A full pharmacokinetic sampling was performed on Day 17 (post am dosing) at the following time points: 1, 2, 4, 8 and 12 hr. On the day of necropsy, Day 18, blood was collected prior to euthanasia, each pig was humanely euthanized and dorsal skin and muscle, liver, kidney, heart, lung, brain, intestine, fat, ovaries, urinary bladder, sciatic nerve, and skin, muscle, synovial membrane, and synovial fluid from all 4 joints (2 treated, left carpus and hock, and 2 untreated, right carpus and hock) was collected.
The dose volume (μL/cm^2) for the test pharmaceutical compositions was 3.0 μL/cm^2 for Groups 1, 2, 3 and 5 and 1.0 μL/cm^2 for Group 4.
Approximately 2 mL of whole blood was collected prior to the morning dose administration on Days 2, 7, 10, 14 and 17. A full pharmacokinetic profile sampling was performed on Day 17 after the morning dose administration at the following time points: 1, 2, 4, 8 and 12 hr. On the day of necropsy, Day 18, blood was collected prior to euthanasia.

O=C1N(Cc2ccc(C(F)(F)F)o2)c2ccccc2[C@]12COc1cc3c(cc12)OCO3 [spiro-oxindole compound, (S)-1′-{[5-(trifluoromethyl)furan-2-yl]methyl}spiro[furo[2,3-f][1,3]benzodioxole-7,3′-indol]-2′(1′H)one]
concentration in plasma, individual animals (G1 (#1-#3): 2% composition, 3.0 μL/cm^2 bid, Day 2 Before dosing): 1.02 ng/mL and 1.65 ng/mL
concentration in plasma, individual animals (G1 (#1-#3): 2% composition, 3.0 μL/cm^2 bid, Day 7 Before dosing): 1.36 ng/mL and 4.12 ng/mL
concentration in plasma, individual animals (G1 (#1-#3): 2% composition, 3.0 μL/cm^2 bid, Day 10 Before dosing): 1.14 ng/mL and 1.87 ng/mL
concentration in plasma, individual animals (G1 (#1-#3): 2% composition, 3.0 μL/cm^2 bid, Day 14 Before dosing): 3.44 ng/mL and 4.69 ng/mL
concentration in plasma, individual animals (G1 (#1-#3): 2% composition, 3.0 μL/cm^2 bid, Day 17 1 hour after dosing): 7.59 ng/mL and 2.71 ng/mL
concentration in plasma, individual animals (G1 (#1-#3): 2% composition, 3.0 μL/cm^2 bid, Day 17 2 hour after dosing): 1.10 ng/mL and 2.16 ng/mL
concentration in plasma, individual animals (G1 (#1-#3): 2% composition, 3.0 μL/cm^2 bid, Day 17 4 hour after dosing): 8.22 ng/mL and 1.67 ng/mL
concentration in plasma, individual animals (G1 (#1-#3): 2% composition, 3.0 μL/cm^2 bid, Day 17 8 hour after dosing): 1.91 ng/mL and 2.03 ng/mL
concentration in plasma, individual animals (G1 (#1-#3): 2% composition, 3.0 μL/cm^2 bid, Day 17 12 hour after dosing): 10.28 ng/mL and 12.85 ng/mL
concentration in plasma, individual animals (G1 (#1-#3): 2% composition, 3.0 μL/cm^2 bid, Day 17 Before dosing): 1.13 ng/mL and 1.43 ng/mL
concentration in plasma, individual animals (G1 (#1-#3): 2% composition, 3.0 μL/cm^2 bid, Day 18): 3.94 ng/mL and 3.24 ng/mL
concentration in plasma, individual animals (G2 (#4-#6): 4% composition, 3.0 μL/cm^2 bid, Day 2 Before dosing): 1.24 ng/mL
concentration in plasma, individual animals (G2 (#4-#6): 4% composition, 3.0 μL/cm^2 bid, Day 7 Before dosing): 1.74 ng/mL and 2.66 ng/mL
concentration in plasma, individual animals (G2 (#4-#6): 4% composition, 3.0 μL/cm^2 bid, Day 10 Before dosing): 5.34 ng/mL and 2.11 ng/mL
concentration in plasma, individual animals (G2 (#4-#6): 4% composition, 3.0 μL/cm^2 bid, Day 14 Before dosing): 4.35 ng/mL and 3.40 ng/mL
concentration in plasma, individual animals (G2 (#4-#6): 4% composition, 3.0 μL/cm^2 bid, Day 17 1 hour after dosing): 2.78 ng/mL and 2.24 ng/mL
concentration in plasma, individual animals (G2 (#4-#6): 4% composition, 3.0 μL/cm^2 bid, Day 17 2 hour after dosing): 4.20 ng/mL and 2.48 ng/mL
concentration in plasma, individual animals (G2 (#4-#6): 4% composition, 3.0 μL/cm^2 bid, Day 17 4 hour after dosing): 3.56 ng/mL and 4.83 ng/mL
concentration in plasma, individual animals (G2 (#4-#6): 4% composition, 3.0 μL/cm^2 bid, Day 17 8 hour after dosing): 3.02 ng/mL and 1.62 ng/mL
concentration in plasma, individual animals (G2 (#4-#6): 4% composition, 3.0 μL/cm^2 bid, Day 17 12 hour after dosing): 21.78 ng/mL
concentration in plasma, individual animals (G2 (#4-#6): 4% composition, 3.0 μL/cm^2 bid, Day 17 Before dosing): 3.90 ng/mL and 2.24 ng/mL
concentration in plasma, individual animals (G2 (#4-#6): 4% composition, 3.0 μL/cm^2 bid, Day 18): 3.29 ng/mL
concentration in plasma, individual animals (G3 (#7-#9): 8% composition, 3.0 μL/cm^2 bid, Day 2 Before dosing): 1.47 ng/mL and 1.21 ng/mL and 2.36 ng/mL
concentration in plasma, individual animals (G3 (#7-#9): 8% composition, 3.0 μL/cm^2 bid, Day 7 Before dosing): 1.50 ng/mL and 4.40 ng/mL and 0.00 ng/mL
concentration in plasma, individual animals (G3 (#7-#9): 8% composition, 3.0 μL/cm^2 bid, Day 10 Before dosing): 5.48 ng/mL and 5.13 ng/mL and 3.64 ng/mL
concentration in plasma, individual animals (G3 (#7-#9): 8% composition, 3.0 μL/cm^2 bid, Day 14 Before dosing): 2.19 ng/mL and 4.81 ng/mL and 6.86 ng/mL
concentration in plasma, individual animals (G3 (#7-#9): 8% composition, 3.0 μL/cm^2 bid, Day 17 1 hour after dosing): 0.98 ng/mL and 9.03 ng/mL and 7.37 ng/mL
concentration in plasma, individual animals (G3 (#7-#9): 8% composition, 3.0 μL/cm^2 bid, Day 17 2 hour after dosing): 2.37 ng/mL and 4.47 ng/mL and 5.31 ng/mL
concentration in plasma, individual animals (G3 (#7-#9): 8% composition, 3.0 μL/cm^2 bid, Day 17 4 hour after dosing): 1.85 ng/mL and 4.29 ng/mL and 6.23 ng/mL
concentration in plasma, individual animals (G3 (#7-#9): 8% composition, 3.0 μL/cm^2 bid, Day 17 8 hour after dosing): 1.65 ng/mL and 3.36 ng/mL and 3.43 ng/mL
concentration in plasma, individual animals (G3 (#7-#9): 8% composition, 3.0 μL/cm^2 bid, Day 17 12 hour after dosing): 27.61 ng/mL and 16.89 ng/mL and 102.48 ng/mL
concentration in plasma, individual animals (G3 (#7-#9): 8% composition, 3.0 μL/cm^2 bid, Day 17 Before dosing): 14.43 ng/mL and 2.45 ng/mL and 3.90 ng/mL
concentration in plasma, individual animals (G3 (#7-#9): 8% composition, 3.0 μL/cm^2 bid, Day 18): 2.76 ng/mL and 6.10 ng/mL and 4.13 ng/mL
concentration in plasma, individual animals (G4 (#10-#12): 8% composition, 1.0 μL/cm^2 bid, Day 2 Before dosing): 0.24 ng/mL and 0.71 ng/mL and 1.34 ng/mL
